Measurements published in article PMC2360244 (British Journal of Cancer, 2007).

Tested on: A2780 ovarian carcinoma cells
Assay: A2780 tumour cell proliferation, MTT colorimetric assay
Assay type: cell-based, human
Conditions: 4 days, mean±s.d.
Method: Control cells were treated with the combined respective vehicle.

## O=C(CCCCCCC(=O)Nc1ccccc1)NO [Vorinostat, suberoylanilide hydroxamic acid]
  IC50: 1160 ± 578 nM
